# According to patent publication US3981983A, “Rapid, radiochemical-ligand binding assay for methotrexate” (priority 1975, dated 1976):
# At least one compound was matched to its structure with a doubt left.
# Tested on: folic acid reductase
# Test: Folic acid reductase activity when MTX binding capacity is just saturated with MTX
# Assay type: biochemical, guinea pig
# Conditions: binder preparation just saturated with MTX
smiles,measurement,value
"CN(Cc1cnc2nc(N)nc(N)c2n1)c1ccc(C(=O)N[C@@H](CCC(=O)O)C(=O)O)cc1 [MTX, N-[p-(2,4-diamino-6-pteridylmethyl)methylaminobenzoyl]-glutamic acid]",folic acid reductase activity when MTX binding capacity just saturated with MTX,no demonstrable folic acid reductase activity
